Patent publication US20130078251A1 (Hoffmann-La Roche, published 2013)
Changes are numbered by the printed parent chain. Results are given in words; binding and its absence hold for the method and conditions named. Some binding calls cover weakened binding; strength is not graded here. One block for each binder: values may come before it.

Amino acid sequences for entries named in this document (tags omitted). Residues count along the entry.
UniProt Q6UVK1, residues 30-2322: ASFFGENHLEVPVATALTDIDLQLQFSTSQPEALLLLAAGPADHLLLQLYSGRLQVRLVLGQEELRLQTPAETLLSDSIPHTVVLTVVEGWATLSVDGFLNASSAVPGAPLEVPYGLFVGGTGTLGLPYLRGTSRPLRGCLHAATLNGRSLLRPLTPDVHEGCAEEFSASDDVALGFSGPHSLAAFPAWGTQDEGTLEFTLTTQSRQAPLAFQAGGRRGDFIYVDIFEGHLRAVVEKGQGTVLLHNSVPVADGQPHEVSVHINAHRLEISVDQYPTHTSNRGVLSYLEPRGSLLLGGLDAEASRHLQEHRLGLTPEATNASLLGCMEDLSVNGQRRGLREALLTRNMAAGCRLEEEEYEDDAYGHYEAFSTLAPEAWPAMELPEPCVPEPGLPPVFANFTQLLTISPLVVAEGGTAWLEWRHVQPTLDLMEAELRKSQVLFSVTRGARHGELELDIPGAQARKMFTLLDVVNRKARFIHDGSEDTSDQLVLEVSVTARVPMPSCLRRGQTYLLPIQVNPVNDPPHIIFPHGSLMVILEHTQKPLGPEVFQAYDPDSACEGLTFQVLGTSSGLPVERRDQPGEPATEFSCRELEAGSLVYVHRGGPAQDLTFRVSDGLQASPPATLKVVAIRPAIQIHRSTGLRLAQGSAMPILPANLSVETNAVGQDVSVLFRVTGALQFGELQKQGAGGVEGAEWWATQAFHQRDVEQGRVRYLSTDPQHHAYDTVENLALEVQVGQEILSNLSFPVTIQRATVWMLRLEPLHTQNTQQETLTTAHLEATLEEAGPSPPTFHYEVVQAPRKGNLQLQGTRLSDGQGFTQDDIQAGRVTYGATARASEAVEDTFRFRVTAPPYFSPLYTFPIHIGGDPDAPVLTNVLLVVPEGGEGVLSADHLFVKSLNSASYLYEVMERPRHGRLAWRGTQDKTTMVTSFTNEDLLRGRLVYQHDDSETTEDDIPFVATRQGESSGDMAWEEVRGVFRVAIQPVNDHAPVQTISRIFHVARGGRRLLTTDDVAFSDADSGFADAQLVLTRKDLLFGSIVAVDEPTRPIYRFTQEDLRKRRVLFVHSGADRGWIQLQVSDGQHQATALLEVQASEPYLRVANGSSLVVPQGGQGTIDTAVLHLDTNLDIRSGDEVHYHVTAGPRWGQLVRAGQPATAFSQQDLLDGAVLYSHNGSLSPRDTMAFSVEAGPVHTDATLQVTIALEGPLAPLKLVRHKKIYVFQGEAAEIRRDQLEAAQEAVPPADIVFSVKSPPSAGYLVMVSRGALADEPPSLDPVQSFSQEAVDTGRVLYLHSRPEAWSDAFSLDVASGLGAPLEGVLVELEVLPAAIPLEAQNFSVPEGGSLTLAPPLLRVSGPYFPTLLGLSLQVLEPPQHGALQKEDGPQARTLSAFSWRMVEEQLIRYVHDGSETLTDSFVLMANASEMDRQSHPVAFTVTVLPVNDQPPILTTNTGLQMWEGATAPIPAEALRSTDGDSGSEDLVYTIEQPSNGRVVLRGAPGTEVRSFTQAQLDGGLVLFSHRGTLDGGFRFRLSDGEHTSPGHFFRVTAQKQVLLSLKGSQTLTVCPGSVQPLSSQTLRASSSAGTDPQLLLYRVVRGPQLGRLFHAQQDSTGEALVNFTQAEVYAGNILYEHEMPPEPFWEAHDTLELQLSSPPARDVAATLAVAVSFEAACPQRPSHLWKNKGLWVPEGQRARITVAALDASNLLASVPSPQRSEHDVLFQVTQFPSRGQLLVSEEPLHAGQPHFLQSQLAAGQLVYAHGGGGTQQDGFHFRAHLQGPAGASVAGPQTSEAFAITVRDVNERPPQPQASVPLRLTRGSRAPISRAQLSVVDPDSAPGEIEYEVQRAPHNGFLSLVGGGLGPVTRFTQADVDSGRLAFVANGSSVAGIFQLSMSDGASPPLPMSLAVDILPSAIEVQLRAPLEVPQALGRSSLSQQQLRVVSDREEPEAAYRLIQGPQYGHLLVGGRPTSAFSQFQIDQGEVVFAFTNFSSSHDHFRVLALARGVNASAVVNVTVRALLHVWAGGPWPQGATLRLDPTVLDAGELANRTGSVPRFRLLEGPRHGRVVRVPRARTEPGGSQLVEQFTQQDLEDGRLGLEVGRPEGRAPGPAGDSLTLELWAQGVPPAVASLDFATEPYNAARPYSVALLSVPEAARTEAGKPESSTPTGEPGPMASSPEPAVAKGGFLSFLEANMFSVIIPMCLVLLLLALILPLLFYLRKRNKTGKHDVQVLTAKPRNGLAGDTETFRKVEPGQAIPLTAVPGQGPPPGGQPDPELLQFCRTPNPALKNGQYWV

Experiments:
[1] = molecular target: MCSP antigen (UniProt Q6UVK1); test: titration read as mean fluorescence (flow cytometry); the cells are not given
[2] = molecular target: MCSP antigen (UniProt Q6UVK1); test: binding of humanized variants, FIG. 8
[3] = molecular target: MCSP antigen (UniProt Q6UVK1); test: Western blot; staining of fresh frozen and fixed tissue

B1: M4-1 ML1 (antibody, V domains shown)
VH: QVQLQESGPGLVKPSQTLSLTCTVSGYSITSGYYWNWIRQHPGKGLEWIGYITYDGSNNYNPSLKSRVTISRDTSKNQFSLKLSSVTAADTAVYYCADFDYWGQGTLVTVSS
VL: DIQMTQSPSSLSASVGDRVTITCSASQGIRNYLNWYQQKPGKAPKLLIYYTSSLHSGVPSRFSGSGSGTDFTLTISSLQPEDFATYYCQQYSKLPWTFGQGTKVEIK
binding [1]: binds

B4: M4-3 ML1 (antibody, V domains shown)
VH: B1 VH with Y27G
VL: B1 VL
binding [1]: binds

B5: chimeric antibody LC007 (antibody, human IgG1, kappa, V domains shown)
VH: EVQLQESGPGLVKPSQSLSLTCSVTGYSITSGYYWNWIRQFPGNKLEWMGYITYDGSNNYNPSLKNRISITRDTSKNQFFLKLNSVTTEDTATYYCADFDYWGQGTTLTVSS
VL: DIVLTQSPSSLSASLGDRVTISCSASQGIRNYLNWYQQRPDGTVKLLIYYTSSLHSGVPSRFSGSGSGTDYSLTISNLEPEDIATYYCQQYSKLPWTFGGGTKLEIKR
notes: also called LC007 antibody; chimeric LC007
binding [1]: binds
binding [3]: binds

Second part, the binder after the results:

binding [1]: binds
binding [2]: binds
B2: LC007 humanized construct M4-6 ML1 (antibody, V domains shown)
VH: B1 VH with R72V
VL: B1 VL

binding [1]: binds
B3: M4-1 ML2 (antibody, V domains shown)
VH: B1 VH
VL: B1 VL with S24R
